Calls as published in the ROBIN set (doi:10.1002/anie.202211358).

Oligonucleotides screened, 5′ to 3′:
T1: TPP riboswitch RNA three-way junction, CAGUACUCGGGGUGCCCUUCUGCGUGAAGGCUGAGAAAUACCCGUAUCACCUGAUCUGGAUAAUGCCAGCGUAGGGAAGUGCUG. Hit rate about 0.7% of about 24,000 compounds.
T2: SAM-II riboswitch RNA pseudoknot, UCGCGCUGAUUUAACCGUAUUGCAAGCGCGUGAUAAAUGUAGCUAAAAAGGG. Hit rate about 1% of about 21,000 compounds.
T3: PreQ1 riboswitch RNA pseudoknot, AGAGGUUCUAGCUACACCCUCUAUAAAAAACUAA. From B. subtilis. Hit rate about 0.7% of about 24,000 compounds.

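Each compound is printed as two spots on a slide made to bind it covalently, so it has no test concentration; the read-out is fluorescence of the bound, labelled oligonucleotide. The data file lists only calls. An earlier report of the laboratory on the PreQ1, TPP and SAM-II riboswitches (doi:10.1038/s41467-019-09493-3) used 1 µM RNA for 2 h and required a mean Z-score above 3 (spot signal-to-noise against the whole library), a score well above that on a control array, and duplicate spots agreeing (coefficient of variation under 100); it then also set aside compounds that hit other targets, which this list keeps. The cut-offs behind this list may differ. These are primary screening calls, not affinities; a compound without a hit may have attached poorly or may still bind in solution.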
“Y” means called a hit, “N” means screened and not called a hit.
The compounds are a random part of those screened.
A dash means that no call is listed here.

SMILES | T1 | T2 | T3
Cc1ccc(-c2cnc(NCc3ccc(F)cc3)n2C)cc1C | N | N | N
COc1ccccc1OCC(O)Cn1c(C2CC(=O)N(c3ccccc3C)C2)nc2ccccc21 (stereo not given) | N | - | N
COC(=O)C1=C(N)OC2=C(C(=O)CCC2)C12C(=O)Nc1ccc(Br)cc12 (stereo not given) | N | N | N
Nc1ncc(Br)cc1S(=O)(=O)Nc1cccc(C(F)(F)F)c1 | N | - | N
Cc1ccc(-c2cc3nc(C)c(-c4ccccc4)c(N)n3n2)cc1 | N | N | N
Oc1ccc(-c2nc3ncccn3c2Nc2ccc(Cl)cc2)cc1 | N | N | N
COc1ccc(CN2CCOC2=O)cc1OC | N | N | N
CC(O)c1nc2cc(-c3cccc4cccnc34)ccc2[nH]1 (stereo not given) | N | N | N
COc1cc(CO)c(C2(C(=O)O)CCCC2)cc1OC | N | N | N
COCCOC(=O)C1=C(N)Oc2c(oc(CO)cc2=O)C1c1ccccc1 (stereo not given) | N | N | N
OC(c1ccccc1)c1nnc(S)n1-c1ccccc1 (stereo not given) | N | N | N
COC(=O)c1c(N)n(Cc2ccccc2)c2nc3ccccc3nc12 | N | N | N
O[C@H]1C[C@H]2CC[C@@H](C1)N2Cc1cn(-c2ccccc2)nn1 | N | N | N
COC(=O)[C@@H]1C[C@@H](O)CN1Cc1ccc(C(=O)Nc2c(C)noc2C)cc1 | N | N | N
CC(C)C[C@@H](N)C(=O)NC1CCN(C(=O)Nc2ccccc2)CC1 | N | N | N
O=C(N1C[C@@H](CN2CCCCC2)[C@@H](CO)C1)C1(c2ccccc2)CCCC1 | N | N | N
O=C(NCCO)C1CCN(S(=O)(=O)c2ccc(Cl)cc2)CC1 | N | N | N
Cc1ccc(C)c2c(O)cc(CNCC3CCCN(S(C)(=O)=O)C3)nc12 (stereo not given) | N | N | N
CNC(=O)C1=C(NCCO)c2ccccc2S1(=O)=O | N | - | N
CC(=O)O[C@H]1C(=O)[C@@]2(C)C(C(OC(=O)c3ccccc3)[C@]3(O)C[C@H](OC(=O)[C@H](O)[C@@H](NC(=O)c4ccccc4)c4ccccc4)C(C)=C1C3(C)C)[C@]1(OC(C)=O)CO[C@@H]1C[C@@H]2O (stereo not given in full) | N | N | N
OCCn1ncc2c1CN(c1nc(-c3ccccc3)nc3c1CCC3)C2 | N | N | N
O=C(c1cn2ccsc2n1)N1CC=CC1CO (stereo not given) | N | N | N
CCN1CCc2nc3sc(C(=O)Nc4ccccc4C)c(N)c3cc2C1 | N | Y | N
Cc1ccc(S(=O)(=O)N(C)C)cc1N | N | N | N
Cc1nc(C2CCCNC2)cc(N2CCC(C(=O)NCc3ccccn3)CC2)n1 (stereo not given) | N | N | N
COc1ccccc1Nc1nc(C2(C)CC3(CC(C)(C)OC3=O)C(=O)O2)cs1 (stereo not given) | N | N | N
CC1Oc2cc3c(-c4c(O)cc(O)c5c(O)c6c(cc45)OC(C)C(C)C6=O)c(O)cc(O)c3c(O)c2C(=O)C1C (stereo not given) | N | N | N
NCCC1CCCN(c2nc3ccccc3o2)C1 (stereo not given) | N | N | N
Cc1nn(CC(O)Cn2c(C)c(C)c3ccccc32)c(C)c1Br (stereo not given) | N | N | N
COc1ccc(CNc2c(-c3ccc(C)cc3)c(=O)c2=O)cc1 | N | - | N
N[C@@H](C(=O)NCc1nc(-c2ccccc2)no1)c1ccccc1 | N | N | N
CCC(C)C1C(C#N)=C(N)Oc2n[nH]c(C)c21 (stereo not given) | N | N | N
Cn1c(=O)n(C)c2cc(C(O)COc3ccc(CNC4CCCCCC4)cc3)ccc21 (stereo not given) | N | - | N
OC1(CN2CCN(Cc3cccc(Cl)c3)CC2)CCCNC1 (stereo not given) | N | N | N
CCCc1n[nH]c2c1C(c1c(OC)cc(OC)cc1OC)C(C#N)=C(N)O2 (stereo not given) | N | N | N
COc1ccc(-c2nc(CN3[C@@H]4CC[C@H]3CNC4)c(C)o2)cc1OC | N | N | N
COc1c(F)c(F)c(C(=O)O)c(Nc2ccccc2)c1F | N | N | N
N[C@@H](CCC(=O)O)C(=O)N1CCC2(CCC(=O)N(C3CCC3)C2)CC1 | N | N | N
Cc1cc(C)n(-c2ccc(C(=O)N(C)CC(O)CO)cc2)n1 (stereo not given) | N | N | N
Fc1ccccc1-n1cnnc1CCNc1ccccc1 | N | N | N
CNc1nc(N(C)C)nc(-n2cnc(SCc3ccccc3)n2)n1 | N | - | N

3 of the entries, repeated:

SMILES	T1	T2	T3
Cc1nn(CC(O)Cn2c(C)c(C)c3ccccc32)c(C)c1Br (stereo not given)	N	N	N
N[C@@H](C(=O)NCc1nc(-c2ccccc2)no1)c1ccccc1	N	N	N
CCN1CCc2nc3sc(C(=O)Nc4ccccc4C)c(N)c3cc2C1	N	Y	N